# ± gives the standard deviation of the averaged measurements. This is a selection; strong and weak results do not stand in their true shares. Small differences around the control level are noise.
# By UniProt entry, the sequences of proteins in these tests, tags left out. Where a name states a change or a piece, a line headed by the entry shows the natural chain unless it says otherwise.
# UniProt O00303, whole entry: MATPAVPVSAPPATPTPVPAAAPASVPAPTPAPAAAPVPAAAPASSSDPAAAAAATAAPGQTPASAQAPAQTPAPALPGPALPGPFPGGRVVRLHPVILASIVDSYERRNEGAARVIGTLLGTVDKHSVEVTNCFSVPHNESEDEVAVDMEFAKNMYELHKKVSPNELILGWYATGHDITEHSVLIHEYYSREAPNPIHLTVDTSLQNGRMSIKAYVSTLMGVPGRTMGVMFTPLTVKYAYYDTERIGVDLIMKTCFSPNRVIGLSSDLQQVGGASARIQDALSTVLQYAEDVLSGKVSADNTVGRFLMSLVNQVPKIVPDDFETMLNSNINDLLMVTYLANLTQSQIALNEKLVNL
# UniProt O14733: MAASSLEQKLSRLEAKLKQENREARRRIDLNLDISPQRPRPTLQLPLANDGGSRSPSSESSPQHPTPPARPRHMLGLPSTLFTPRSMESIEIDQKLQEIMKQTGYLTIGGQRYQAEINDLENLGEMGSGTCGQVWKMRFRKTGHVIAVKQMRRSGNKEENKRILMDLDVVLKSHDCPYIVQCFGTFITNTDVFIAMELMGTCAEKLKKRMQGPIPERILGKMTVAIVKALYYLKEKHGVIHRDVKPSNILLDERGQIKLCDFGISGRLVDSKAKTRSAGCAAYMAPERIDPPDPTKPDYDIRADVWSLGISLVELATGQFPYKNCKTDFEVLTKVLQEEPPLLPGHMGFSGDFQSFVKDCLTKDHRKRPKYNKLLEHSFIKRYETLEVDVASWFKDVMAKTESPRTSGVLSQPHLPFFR
# UniProt O43237, whole entry: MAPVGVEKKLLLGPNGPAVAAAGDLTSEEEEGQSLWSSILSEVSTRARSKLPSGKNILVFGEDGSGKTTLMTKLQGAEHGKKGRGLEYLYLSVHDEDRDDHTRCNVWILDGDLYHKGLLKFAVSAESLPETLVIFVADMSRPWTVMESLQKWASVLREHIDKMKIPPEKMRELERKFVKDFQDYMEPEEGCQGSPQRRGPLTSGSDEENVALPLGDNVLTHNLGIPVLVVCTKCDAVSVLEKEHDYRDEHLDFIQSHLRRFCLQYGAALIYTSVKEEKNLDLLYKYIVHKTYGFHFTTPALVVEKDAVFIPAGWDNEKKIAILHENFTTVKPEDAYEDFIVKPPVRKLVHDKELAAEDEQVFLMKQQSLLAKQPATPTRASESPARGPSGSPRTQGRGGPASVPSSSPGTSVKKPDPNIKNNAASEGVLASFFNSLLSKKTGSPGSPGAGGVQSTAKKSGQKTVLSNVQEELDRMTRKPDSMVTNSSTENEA
# UniProt O15391, whole entry: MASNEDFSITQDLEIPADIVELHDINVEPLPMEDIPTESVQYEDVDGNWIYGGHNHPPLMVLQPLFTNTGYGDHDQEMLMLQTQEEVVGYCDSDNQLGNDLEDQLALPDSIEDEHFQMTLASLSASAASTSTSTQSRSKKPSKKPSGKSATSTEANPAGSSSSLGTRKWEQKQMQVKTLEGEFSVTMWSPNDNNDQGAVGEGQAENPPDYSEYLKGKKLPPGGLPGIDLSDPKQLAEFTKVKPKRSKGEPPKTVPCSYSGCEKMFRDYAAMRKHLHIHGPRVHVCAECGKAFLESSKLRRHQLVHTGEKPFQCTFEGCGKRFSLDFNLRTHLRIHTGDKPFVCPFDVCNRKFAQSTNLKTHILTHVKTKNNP
# UniProt O15234, whole entry: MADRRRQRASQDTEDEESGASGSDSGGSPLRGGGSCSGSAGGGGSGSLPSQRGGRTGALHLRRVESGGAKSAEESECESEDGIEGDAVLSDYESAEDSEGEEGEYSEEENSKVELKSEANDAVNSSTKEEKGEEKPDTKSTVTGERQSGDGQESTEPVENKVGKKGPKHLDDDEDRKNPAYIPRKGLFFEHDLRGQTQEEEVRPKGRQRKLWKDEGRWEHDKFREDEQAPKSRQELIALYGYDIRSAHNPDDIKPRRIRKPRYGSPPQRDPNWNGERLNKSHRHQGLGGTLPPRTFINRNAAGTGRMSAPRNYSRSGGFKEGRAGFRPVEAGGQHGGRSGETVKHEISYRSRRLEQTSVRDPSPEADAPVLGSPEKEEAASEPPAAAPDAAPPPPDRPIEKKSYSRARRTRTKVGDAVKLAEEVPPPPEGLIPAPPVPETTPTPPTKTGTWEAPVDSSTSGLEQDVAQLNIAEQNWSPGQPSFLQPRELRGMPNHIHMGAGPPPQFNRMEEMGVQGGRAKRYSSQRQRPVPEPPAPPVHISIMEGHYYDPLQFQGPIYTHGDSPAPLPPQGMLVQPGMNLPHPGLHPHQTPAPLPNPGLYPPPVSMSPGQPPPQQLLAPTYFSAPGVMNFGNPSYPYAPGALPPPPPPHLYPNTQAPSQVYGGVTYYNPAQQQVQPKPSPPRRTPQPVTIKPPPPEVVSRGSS
# UniProt Q9UBC2: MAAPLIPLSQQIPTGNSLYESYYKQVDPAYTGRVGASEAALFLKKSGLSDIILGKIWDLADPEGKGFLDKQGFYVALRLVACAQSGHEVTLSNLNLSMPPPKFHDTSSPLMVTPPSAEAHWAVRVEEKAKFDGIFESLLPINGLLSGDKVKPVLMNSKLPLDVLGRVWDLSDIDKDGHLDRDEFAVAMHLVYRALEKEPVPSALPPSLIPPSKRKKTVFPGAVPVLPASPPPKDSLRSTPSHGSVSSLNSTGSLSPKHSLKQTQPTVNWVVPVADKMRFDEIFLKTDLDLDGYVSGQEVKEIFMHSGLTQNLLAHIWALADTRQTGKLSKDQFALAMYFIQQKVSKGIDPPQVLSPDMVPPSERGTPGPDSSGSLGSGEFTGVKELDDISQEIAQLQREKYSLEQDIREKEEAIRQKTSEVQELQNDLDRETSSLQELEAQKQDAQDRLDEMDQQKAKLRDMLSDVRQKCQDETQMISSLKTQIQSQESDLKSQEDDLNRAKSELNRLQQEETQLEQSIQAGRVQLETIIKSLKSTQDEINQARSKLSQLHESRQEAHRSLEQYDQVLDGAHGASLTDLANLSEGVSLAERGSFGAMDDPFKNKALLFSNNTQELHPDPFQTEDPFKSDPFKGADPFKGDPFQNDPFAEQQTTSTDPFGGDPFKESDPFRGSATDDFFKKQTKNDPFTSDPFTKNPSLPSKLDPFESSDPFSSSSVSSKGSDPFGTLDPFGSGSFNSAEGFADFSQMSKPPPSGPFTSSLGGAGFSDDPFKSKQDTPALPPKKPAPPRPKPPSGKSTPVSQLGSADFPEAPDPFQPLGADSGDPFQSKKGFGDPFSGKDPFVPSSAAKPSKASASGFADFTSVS
# UniProt O15498: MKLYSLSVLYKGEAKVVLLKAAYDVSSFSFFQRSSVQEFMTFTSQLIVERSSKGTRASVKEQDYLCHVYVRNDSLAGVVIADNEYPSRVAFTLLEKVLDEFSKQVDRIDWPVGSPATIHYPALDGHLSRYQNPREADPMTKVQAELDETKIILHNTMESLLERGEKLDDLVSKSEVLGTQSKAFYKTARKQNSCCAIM
# UniProt O43663: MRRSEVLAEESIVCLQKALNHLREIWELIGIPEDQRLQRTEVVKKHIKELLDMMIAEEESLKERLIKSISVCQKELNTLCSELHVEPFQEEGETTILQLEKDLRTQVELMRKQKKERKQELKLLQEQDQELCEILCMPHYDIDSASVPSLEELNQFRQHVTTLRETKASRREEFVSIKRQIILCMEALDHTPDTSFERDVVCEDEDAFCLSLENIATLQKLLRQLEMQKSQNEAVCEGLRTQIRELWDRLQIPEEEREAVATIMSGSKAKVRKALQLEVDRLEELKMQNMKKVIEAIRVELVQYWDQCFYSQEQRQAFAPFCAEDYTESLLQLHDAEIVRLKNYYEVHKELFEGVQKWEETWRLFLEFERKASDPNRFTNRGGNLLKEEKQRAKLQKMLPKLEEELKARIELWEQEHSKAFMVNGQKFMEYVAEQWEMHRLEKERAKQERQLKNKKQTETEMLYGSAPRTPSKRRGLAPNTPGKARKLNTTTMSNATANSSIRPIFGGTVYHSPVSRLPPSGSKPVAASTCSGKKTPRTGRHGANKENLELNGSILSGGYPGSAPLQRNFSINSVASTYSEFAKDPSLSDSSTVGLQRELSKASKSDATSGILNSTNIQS
# UniProt O14732: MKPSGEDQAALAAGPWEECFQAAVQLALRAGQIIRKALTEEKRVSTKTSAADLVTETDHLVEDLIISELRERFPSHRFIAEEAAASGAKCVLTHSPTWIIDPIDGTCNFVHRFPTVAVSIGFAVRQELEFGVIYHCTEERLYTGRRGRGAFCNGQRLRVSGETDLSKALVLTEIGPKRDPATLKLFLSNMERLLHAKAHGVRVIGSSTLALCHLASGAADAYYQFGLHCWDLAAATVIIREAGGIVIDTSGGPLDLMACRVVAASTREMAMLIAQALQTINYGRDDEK
# UniProt O00233: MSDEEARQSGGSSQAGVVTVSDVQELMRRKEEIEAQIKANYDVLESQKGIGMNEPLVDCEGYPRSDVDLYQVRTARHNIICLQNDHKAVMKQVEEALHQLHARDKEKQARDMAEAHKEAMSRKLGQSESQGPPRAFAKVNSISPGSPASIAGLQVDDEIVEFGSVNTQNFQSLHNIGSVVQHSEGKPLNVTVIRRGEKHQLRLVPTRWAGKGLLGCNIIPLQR
# UniProt Q08117: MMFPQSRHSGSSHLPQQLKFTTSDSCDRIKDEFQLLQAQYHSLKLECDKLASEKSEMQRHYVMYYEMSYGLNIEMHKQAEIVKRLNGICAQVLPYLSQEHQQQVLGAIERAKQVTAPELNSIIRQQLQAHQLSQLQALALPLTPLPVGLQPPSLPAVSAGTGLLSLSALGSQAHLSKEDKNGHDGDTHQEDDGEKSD
# UniProt O15382: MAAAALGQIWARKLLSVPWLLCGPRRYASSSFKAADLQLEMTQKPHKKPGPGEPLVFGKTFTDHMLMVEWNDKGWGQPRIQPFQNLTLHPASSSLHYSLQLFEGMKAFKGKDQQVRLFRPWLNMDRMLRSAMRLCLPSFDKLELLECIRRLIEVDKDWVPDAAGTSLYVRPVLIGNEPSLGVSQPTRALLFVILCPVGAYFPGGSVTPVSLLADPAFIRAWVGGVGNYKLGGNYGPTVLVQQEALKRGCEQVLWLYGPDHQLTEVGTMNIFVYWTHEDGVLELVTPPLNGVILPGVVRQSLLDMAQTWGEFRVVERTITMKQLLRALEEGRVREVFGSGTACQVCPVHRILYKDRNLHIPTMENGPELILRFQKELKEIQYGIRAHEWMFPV
# UniProt O43861: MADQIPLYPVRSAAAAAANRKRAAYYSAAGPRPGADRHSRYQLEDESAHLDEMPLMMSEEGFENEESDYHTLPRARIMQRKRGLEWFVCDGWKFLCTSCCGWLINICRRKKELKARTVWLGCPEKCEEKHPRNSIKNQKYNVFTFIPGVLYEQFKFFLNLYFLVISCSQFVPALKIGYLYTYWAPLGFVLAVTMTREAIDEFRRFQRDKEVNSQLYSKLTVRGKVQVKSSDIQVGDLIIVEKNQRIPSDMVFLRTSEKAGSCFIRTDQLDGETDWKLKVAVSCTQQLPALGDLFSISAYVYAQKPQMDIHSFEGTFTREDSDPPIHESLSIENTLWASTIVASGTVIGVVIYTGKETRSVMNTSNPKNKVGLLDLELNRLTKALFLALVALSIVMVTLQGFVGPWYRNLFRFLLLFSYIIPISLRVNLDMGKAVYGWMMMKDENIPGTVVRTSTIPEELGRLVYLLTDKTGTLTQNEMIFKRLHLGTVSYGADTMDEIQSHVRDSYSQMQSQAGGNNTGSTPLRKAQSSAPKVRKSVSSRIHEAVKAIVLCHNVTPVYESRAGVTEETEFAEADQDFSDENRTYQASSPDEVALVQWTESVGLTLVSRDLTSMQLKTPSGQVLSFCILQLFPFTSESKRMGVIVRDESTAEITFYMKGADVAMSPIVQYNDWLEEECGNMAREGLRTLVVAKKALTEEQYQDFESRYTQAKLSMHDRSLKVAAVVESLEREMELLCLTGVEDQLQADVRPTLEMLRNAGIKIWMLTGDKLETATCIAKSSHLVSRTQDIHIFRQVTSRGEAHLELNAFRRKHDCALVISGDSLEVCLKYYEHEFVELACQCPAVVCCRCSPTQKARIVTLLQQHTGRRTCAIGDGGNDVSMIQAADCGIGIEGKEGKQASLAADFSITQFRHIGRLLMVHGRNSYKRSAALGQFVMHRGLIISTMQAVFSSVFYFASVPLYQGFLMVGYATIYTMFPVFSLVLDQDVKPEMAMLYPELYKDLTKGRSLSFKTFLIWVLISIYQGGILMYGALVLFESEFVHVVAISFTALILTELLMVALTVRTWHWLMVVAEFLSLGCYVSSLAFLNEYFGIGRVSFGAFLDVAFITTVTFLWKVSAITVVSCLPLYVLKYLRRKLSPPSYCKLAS
# UniProt O14530: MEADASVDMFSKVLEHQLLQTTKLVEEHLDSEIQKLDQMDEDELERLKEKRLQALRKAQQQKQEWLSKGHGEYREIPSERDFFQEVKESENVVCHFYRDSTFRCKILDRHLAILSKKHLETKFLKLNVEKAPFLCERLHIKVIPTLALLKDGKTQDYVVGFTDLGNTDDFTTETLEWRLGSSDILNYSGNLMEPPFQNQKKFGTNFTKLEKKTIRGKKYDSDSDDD
# Compound: Nc1ncnc2c1ncn2[C@@H]1O[C@H](COP(=O)(O)OP(=O)(O)NP(=O)(O)O)[C@@H](O)[C@H]1O [adenylyl imidodiphosphate]
# Assay: NP40-soluble protein abundance relative to vehicle (solubility fold change) (ratio); higher = more soluble protein in presence of AMP-PNP
# Conditions: concentration: 0.1mM
# In short: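 Jurkat crude lysate prepared with a Dounce homogeniser was treated at eight concentrations spanning 0.1 to 10 mM, 10 min at room temperature then 3 min at 37 °C. Solubilisation with 0.8% NP40 and benzonase and ultracentrifugation preceded TMT labelling of the supernatant for LC-MS/MS. Fold change against the detergent-processed vehicle was determined per replicate from vsn-normalised intensities, across three independent experiments.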
row,Target,NP40-soluble protein abundance
1,L0R819 (UniProt Q9NWL6),1 ± 0.026
2,ARID1A (UniProt O14497),1 ± 0.032
3,EIF3F (UniProt O00303),1.03 ± 0.027
4,K7ELQ9 and related entries (UniProt Q6UW68),0.988 ± 0.015
5,UniProt O43865,0.986 ± 0.024
6,UniProt O14733 and related entries,1.06 ± 0.044
7,AP3B1 (UniProt O00203),1.02 ± 0.02
8,DYNC1LI2 (UniProt O43237),1.01 ± 0.036
9,UniProt O15391,1.04 ± 0.012
10,ARPC3 (UniProt O15145),0.983 ± 0.11
11,UniProt O15234 and related entries,0.985 ± 0.03
12,SCO2 (UniProt O43819),1 ± 0.022
13,SLC16A3 (UniProt O15427),0.997 ± 0.035

# Same assay, conditions: concentration: 0.5mM
row,Target,NP40-soluble protein abundance
1,UniProt O15530 and related entries,0.975 ± 0.063
2,M0QX46 and related entries (UniProt Q6UUV9),0.987 ± 0.019
3,KPNA3 (UniProt O00505),1.02 ± 0.015
4,UniProt O43156,0.9731 ± 0.0081
5,UniProt O14936 and related entries,0.986 ± 0.047
6,UniProt O15020 and related entries,1.008 ± 0.004
7,UniProt O00330 and related entries,1.01 ± 0.12
8,K7EMM8 and related entries (UniProt Q49A26),1.02 ± 0.028
9,UBFD1 (UniProt O14562),0.996 ± 0.065
10,M0QY01 and related entries (UniProt Q9UBC2),0.995 ± 0.048
11,M0QZM1 and related entries (UniProt P52272),1 ± 0.039
12,YKT6 (UniProt O15498),1.01 ± 0.014
13,XPOT (UniProt O43592),0.99 ± 0.031
14,UniProt O43663 and related entries,1.01 ± 0.016
15,UniProt O14732 and related entries,0.992 ± 0.065
16,PSMD9 (UniProt O00233),0.999 ± 0.029
17,K7ELE3 and related entries (UniProt Q08117),0.969 ± 0.034
18,BCAT2 (UniProt O15382),1.03 ± 0.13
19,NUDT21 (UniProt O43809),1.047 ± 0.01

row,Target,NP40-soluble protein abundance
1,UBE2L6 (UniProt O14933),1.07 ± 0.048
2,UniProt O00154-4|O00154-7|K7EKP8,1.02 ± 0.017
3,UniProt O43861 and related entries,1.01 ± 0.037
4,POLR1C (UniProt O15160),1 ± 0.029
5,TXNDC9 (UniProt O14530),0.995 ± 0.059
6,L0R819 (UniProt Q9NWL6),1.01 ± 0.062
7,ARID1A (UniProt O14497),1.01 ± 0.052
8,EIF3F (UniProt O00303),1.04 ± 0.012
9,K7ELQ9 and related entries (UniProt Q6UW68),0.9901 ± 0.0062
10,UniProt O43865,1.01 ± 0.042
11,UniProt O14733 and related entries,1.06 ± 0.023
12,AP3B1 (UniProt O00203),1.03 ± 0.027
13,DYNC1LI2 (UniProt O43237),1.01 ± 0.059
14,UniProt O15391,1.07 ± 0.016
15,ARPC3 (UniProt O15145),1.14 ± 0.25
16,UniProt O15234 and related entries,1.03 ± 0.052
17,SCO2 (UniProt O43819),0.981 ± 0.025
18,SLC16A3 (UniProt O15427),0.99275 ± 0.00018
